SMILES strings stand for the structures. ≈ marks a conversion by molar mass, not a printed value.

This test deals with Escherichia coli. Put plainly: Antimicrobial activity against Escherichia coli 5933 after 24 hr by two-fold serial dilution method. The test is classed as functional. Particulars: Escherichia coli, 5933, 24 h.

For orientation: MIC means the least concentration at which growth counts as inhibited. A high value points to a need for much substance. Molecule `CC1(C)S[C@@H]2[C@H](NC(=O)[C@H](N)c3ccccc3)C(=O)N2[C@H]1C(=O)O` [AMPICILLIN] gave an MIC of 10 µg/mL (≈ 28.6 µM).

The values above are taken from ChEMBL document CHEMBL3046414, “Synthesis, anticancer, anti-HIV-1, and antimicrobial activity of some tricyclic triazino and triazolo[4,3-e]purine derivatives” (Med Chem Res, 2012).
